Assay results taken from patent US9730449B2, “Thiazole compound and its use in pest control” (Sumitomo Chemical Company, Limited, priority 2014, dated 2017).
Some of these results come from one statement about several compounds together.

Key:
Assay type in all cases: in vivo
[1] = test system: brown planthoppers (Nilaparvata lugens); test: Test Example 3: rice seedling foliar treatment, brown planthopper controlling value; conditions: 500 ppm, 10 ml scattered on rice seedlings; third- or fourth-instar larvae; 25° C.; after 6 days
[2] = test system: common house mosquito (Culex pipiens pallens); conditions: concentration of active ingredients of 3.5 ppm in ion exchange water; final-instar larvae; after 24 hours
[3] = test system: cotton aphids (Aphis gossypii); test: Test Example 4: cucumber seedling foliar treatment, cotton aphid controlling value; conditions: 500 ppm, 20 ml scattered on cucumber seedlings inoculated with aphids; 6 days after the scattering
[4] = test system: gambiae sensu stricto (Anopheles gambiae); conditions: 167 ppm in acetone, 0.3 μl topically applied to chest back plate of females; 2 days after the topical application
Description: 10 mg of each of the compounds (1a-1), (1a-2), (1a-4), (1a-5), (1a-6), (1a-7), (1a-19), (1a-20), (1a-22), (1a-23), (1a-32), (1a-38), (1a-39), (1a-77), (1b-1), and (1b-2) of the present invention was dissolved in 3 ml of acetone. Test solutions were prepared by diluting each of the above solutions 20-fold with acetone (concentration of active ingredients of 167 ppm). […] The test was performed on 10 imagos per group, after the topical application, the imagos were transferred to a cup, and 5 percent sugar water was given.

Structure (SMILES)	Controlling value [1]	Mortality [2]	Controlling value [3]	Mortality [4]
CSc1cnc(OCc2c(C)cccc2F)s1 [Compound 1a-16]	≥ 90%	–	–	–
Cc1ccccc1COc1ncc([S+](C)[O-])s1 (centres unmarked) [Compound 1b-2]	≥ 90%	≥ 90%	≥ 90%	≥ 90%
